PubChem BioAssay AID602196 | INSERM – 2012
The whole screen tested about 23,000 reagents; this is a part drawn at random. 455 of all reagents (2%) were called active. 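Active includes both protection and sensitisation; some change values fall well beyond the stated -50 to +50 range.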 A number with no mark means an inactive call. Further read-outs or replicates are left out here. Not given: the amount of reagent.

- Assay: 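Knock-downs that protect lung cancer cells from cisplatin or sensitise them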
- System: human A549 lung cancer cells
- Reagent: siRNA pair against human genes
- Time to read-out: 48 h transfection before cisplatin; time from cisplatin to read-out not stated
- Conditions: cisplatin at a dose killing half of control-siRNA cells; exact dose and duration not given
- Read-out: 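Cisplatin cell death as a shift from the 50% death seen with control siRNA; siRNAs toxic or growth-blocking alone scored 0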
- Scale: two-siRNA summed score (-2 to +2): higher = both siRNAs protect from cisplatin killing; -2 means both sensitise
- Call rule: 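siRNAs harmful alone (LDH or WST-1) get 0; others get +1 for less and -1 for more cisplatin killing; genes are active when the two siRNAs give the same sign, summing to ±2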
- Meaning of the calls: active = both siRNAs shift cisplatin killing the same way; inactive = no consistent shift, or siRNA harmful alone

For ING4, what was measured?
two-siRNA summed score (-2 to +2): 0

For DUBR, what was measured?
two-siRNA summed score (-2 to +2): 1

With CD163, what does the deposit list?
two-siRNA summed score (-2 to +2): 0

What is on record for LOC389863?
two-siRNA summed score (-2 to +2): 0

A stretch from the list above, for reference:
DUBR → two-siRNA summed score (-2 to +2): 1
CD163 → two-siRNA summed score (-2 to +2): 0

Additional reagents:
What is on record for ADCY9?
two-siRNA summed score (-2 to +2): -1

With HMGA1, how do the results read?
two-siRNA summed score (-2 to +2): 0

For LOC402145, what does the deposit list?
two-siRNA summed score (-2 to +2): 0

What did the screen give for LOC442154?
two-siRNA summed score (-2 to +2): 0

How did the screen score TNP2?
two-siRNA summed score (-2 to +2): 0

How did the screen score PCYT1A?
two-siRNA summed score (-2 to +2): 0

How did the screen score TRPM6?
two-siRNA summed score (-2 to +2): 0

Which result is listed for TOP1MT?
two-siRNA summed score (-2 to +2): 0
